Source: patent publication US20110171231A1 (published 2011)
No constants are given. Whether binding was seen depends on the method and setting. Some binding calls cover weakened binding; strength is not graded here. Sequences can lack the tags named with a protein.

Biological target: T1, recombinant mouse PlGF-2 (mouse, UniProt P49764 24-158, limits assumed)
T1 sequence (looked up): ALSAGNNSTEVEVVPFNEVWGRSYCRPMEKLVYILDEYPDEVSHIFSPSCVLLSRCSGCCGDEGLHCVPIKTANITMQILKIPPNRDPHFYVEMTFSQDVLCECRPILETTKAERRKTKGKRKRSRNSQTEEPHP
Test: competition ELISA on mPlGF-coated plate; unlabelled NRP-1-Fc against biotinylated NRP-1-Fc

B1: biotinylated mouse NRP-1-Fc (Fc fusion, UniProt P97333 22-856, looked up, not shown: a dimerising Fc or GST)
chain: FRSDKCGGTIKIENPGYLTSPGYPHSYHPSEKCEWLIQAPEPYQRIMINFNPHFDLEDRDCKYDYVEVIDGENEGGRLWGKFCGKIAPSPVVSSGPFLFIKFVSDYETHGAGFSIRYEIFKRGPECSQNYTAPTGVIKSPGFPEKYPNSLECTYIIFAPKMSEIILEFESFDLEQDSNPPGGMFCRYDRLEIWDGFPEVGPHIGRYCGQKTPGRIRSSSGVLSMVFYTDSAIAKEGFSANYSVLQSSISEDFKCMEALGMESGEIHSDQITASSQYGTNWSVERSRLNYPENGWTPGEDSYKEWIQVDLGLLRFVTAVGTQGAISKETKKKYYVKTYRVDISSNGEDWISLKEGNKAIIFQGNTNPTDVVLGVFSKPLITRFVRIKPVSWETGISMRFEVYGCKITDYPCSGMLGMVSGLISDSQITASNQADRNWMPENIRLVTSRTGWALPPSPHPYTNEWLQVDLGDEKIVRGVIIQGGKHRENKVFMRKFKIAYSNNGSDWKTIMDDSKRKAKSFEGNNNYDTPELRTFSPLSTRFIRIYPERATHSGLGLRMELLGCEVEAPTAGPTTPNGNPVDECDDDQANCHSGTGDDFQLTGGTTVLATEKPTIIDSTIQSEFPTYGFNCEFGWGSHKTFCHWEHDSHAQLRWSVLTSKTGPIQDHTGDGNFIYSQADENQKGKVARLVSPVVYSQSSAHCMTFWYHMSGSHVGTLRVKLRYQKPEEYDQLVWMVVGHQGDHWKEGRVLLHKSLKLYQVIFEGEIGKGNLGGIAVDDISINNHISQEDCAKPTDLDKKNTEIKIDETGSTPGYEGEGEGDKNISRKPGNVLKTLDP
modifications: biotinylated
- binding: binds
